{"source": "paper PMC10721329", "about": "“Quisinostat is a brain-penetrant radiosensitizer in glioblastoma” (JCI Insight, 2023)", "test_system": "U87 flank tumors", "assay": "U87 flank tumor growth, QST with or without IR", "format": "in vivo, athymic nude mice", "details": "individual mice", "protocol": "We next examined whether QST treatment alone or in combination with IR would be effective in slowing tumor growth in a flank model of GBM (U87). Tumor-bearing mice receiving IR were treated with 2-Gy fractions on Monday, Wednesday, and Friday (MWF) 2 hours after dosing with either vehicle solution or QST (10 mg/kg), for a total dose of 6 Gy. Following completion of IR, mice continued to receive vehicle or QST until the tumors reached the maximum volume threshold (Figure 5C). […] The mean tumor volume in mice with combination treatment was approximately 4.5-fold less than that in vehicle-treated mice at study completion (Figure 5D). […]\nRad225XL irradiator (Precision X -Ray).\nFor flank implantations, cells were pre pared in a 1:1 ratio with 100 uL Matrigel (Corning […]\nsyringe fitted with a 26 -gauge needle. Mice were anesthetized with isoflurane in a plastic desiccator placed in an ex ternally vented fume hood. The U87 -Matrigel cell suspension was then subcutaneously injected into the flank of the mouse on the posterior/lateral aspect of the lower rib cage. Mice were monitored daily , and growth of flank tumor area was measured with a di gital caliper (ThermoFisher) twice a week. […]\nPreparation of QST for In Vivo Use\nFor in vivo preparation, QST was dissolved in 50% polyethylene glycol (PEG) 300, 50% sterile water solution for 10 mg/kg dosing. The suspension was then sonicated for 10 minutes to allow the drug to completely dissolve. Finally, the pH of both the drug and the vehicle solutions was adjusted to 7.4 before intraperitoneal dosing. […]\nIn Vivo Irradiation Studies\nIntracranial or flank tumor–bearing nude mice were sedated with gaseous isoflurane before\nIR. On the first week of treatment, 2 hours after treatment with QST or vehicle, the mice were […]\ntreated with 2 Gy of ionizing radiation on MWF for a total 6 Gy (3 doses). […]\nImplanted flank tumors were allowed to grow until the tumor size reached 100 mm3 volume. […] Tumor growth and treatment response were monitored by manually measuring the tumor area twice per week starting at 13 days after implantation. […]", "note": "Values joined by “and” are separate entries in the source; they are usually repeats but may differ in a detail not shown here. Equal values may be shown once. This continues a long series; more values of the same kind are listed elsewhere.", "data": [{"compound": "Cn1cc(CNCC2CCN(c3ncc(C(=O)NO)cn3)CC2)c2ccccc21", "note": "[QST, quisinostat]", "values": [{"measurement": "flank tumor volume", "setting": "Combo 10 mg/kg Qstat + 6 Gy IR, day 20 post injection", "value": "58.08 mm^3 and 79.9875 mm^3 and 98.3125 mm^3 and 122.4 mm^3 and 165.584 mm^3 and 55.016 mm^3 and 92.4385 mm^3 and 193.027 mm^3"}, {"measurement": "flank tumor volume", "setting": "Combo 10 mg/kg Qstat + 6 Gy IR, day 24 post injection", "value": "95.506 mm^3 and 71.442 mm^3 and 69.12 mm^3 and 104.284 mm^3 and 196.463 mm^3 and 79.768 mm^3 and 119.382 mm^3 and 254.016 mm^3"}, {"measurement": "flank tumor volume", "setting": "Quisinostat 10 mg/kg IP MWF, day 24 post injection", "value": "438.746 mm^3 and 73.008 mm^3 and 88.872 mm^3 and 373.968 mm^3 and 61.364 mm^3 and 196.02 mm^3 and 112.5 mm^3 and 262.848 mm^3 and 491.102 mm^3 and 306.418 mm^3"}]}]}
